Consider two substances from patent publication US6428985 (REGENTS OF THE UNIVERSITY OF MICHIGAN, dated 2002).

Results are given in words; binding and its absence hold for the method and conditions named. A result given as binding can be weak or reduced; the word gives no strength.

In the assay the target is T1, mIL-10R1 on Ba/F3-mIL-10R1 cells (mouse pro-B cell line stably transfected with mIL-10R1) (murine) (UniProt Q61727).
T1 sequence (looked up): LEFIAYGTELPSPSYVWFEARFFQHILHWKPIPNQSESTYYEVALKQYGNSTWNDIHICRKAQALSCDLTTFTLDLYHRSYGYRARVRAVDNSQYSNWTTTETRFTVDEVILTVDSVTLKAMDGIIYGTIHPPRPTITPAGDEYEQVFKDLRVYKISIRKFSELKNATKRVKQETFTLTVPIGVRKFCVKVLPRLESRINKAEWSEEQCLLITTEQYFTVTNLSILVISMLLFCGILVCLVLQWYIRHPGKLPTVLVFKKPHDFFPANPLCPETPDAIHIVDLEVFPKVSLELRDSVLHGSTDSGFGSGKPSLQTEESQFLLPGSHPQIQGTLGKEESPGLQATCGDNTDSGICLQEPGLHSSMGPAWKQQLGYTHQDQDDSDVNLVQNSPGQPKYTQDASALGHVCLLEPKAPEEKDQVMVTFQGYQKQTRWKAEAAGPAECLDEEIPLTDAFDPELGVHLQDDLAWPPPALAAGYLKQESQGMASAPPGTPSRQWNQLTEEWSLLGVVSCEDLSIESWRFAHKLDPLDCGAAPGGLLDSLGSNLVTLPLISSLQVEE
Nature of the assay: flow cytometry on Ba/F3-mIL-10R1 cells. (Flow cytometry measures light scatter and fluorescence of single cells or particles in a stream.)

As to “vIL-10 with amino terminal FLAG tag (pFLAGCMV-1 construct) (ligand)”, the binding result was “binds”.
In the case of “vIL-10 with carboxyl terminal myc-his tag (ligand)”, the binding entry is on record as “binds”.
